Patent US5597685A, “Color photographic element having improved image stability” (Eastman Kodak Company, priority 1995, dated 1997)

Key:
[1] = Extent of reaction between SI-20 and M-41 in mixed dispersions by HPLC: loss of M-41; conditions: mixed with equal weight of SI-20 dispersion, 40° C., 26 hours, listed substance is image stabilizer in M-41 dispersion
Protocol: (§1) A dispersion of the epoxide compound SI-20 was prepared in the following manner.
(§2) 2.0 grams of SI-20 was combined with 2.0 grams of poly(vinylpyrrolidone) (Kollidon 25 grade from BASF), 0.11 grams of sodium dodecyl sulfate and 20.04 grams of distilled water to constitute the slurry. This was combined with 80.57 grams of zirconia beads and placed on a Sweco mill to grind for five days. The slurry was then separated from the beads by filtration. An aqueous solution of gelatin was prepared by combining 6.88 grams of a 24% solution of Type IV gelatin with 8.33 grams of distilled water. The pH of the gelatin solution was adjusted to 5.0. The latter was then combined with 25 grams of the ground slurry to constitute the dispersion.
A dispersion of the magenta coupler M-41 was prepared in the following manner. 14.73 grams of tri(2-ethylhexyl) phosphate was heated as coupler solvent to a temperature of 120° C. and combined with 11.35 grams of image stabilizer STG-A1 and 3.4 grams of ST-1. This was then combined with 12.75 grams of coupler M-41 to constitute the oil phase. The aqueous phase was prepared by mixing 88.5 grams of a 24% w/w solution of Type IV gelatin with 21.2 grams of a 10% w/w solution of the surfactant Alkanol XC and 273 grams of distilled water. The latter was then heated to 70° C. The oil phase was then combined with the aqueous phase and the mixture passed twice through a microfluidizer at a pressure of 10,000 psi at 70° C. to obtain the dispersion. [drawing 35]
A dispersion of M-41 was also prepared with the image stabilizer ST-2 (control) in place of STG-A1. [drawing 36]
(§3) A given weight of dispersion of M-41 was then mixed with an equal weight of dispersion of epoxide SI-20 and the mixture was incubated in a water bath at 40° C. After 26 hours the mixture was analyzed by high perfomance liquid chromatography (HPLC) to determine the extent of reaction between SI-20 and M-41. The results are as follows:
Additional dispersions of M-41 were prepared according to the method of Example 1 but using image stabilizers ST-4 and ST-5 as controls in place of STG-A1. [drawing 38]
As before, a given weight of dispersion of M-41 was mixed with an equal weight of dispersion of epoxide SI-20 and the mixture was then incubated in a water bath at 40° C. After 26 hours the mixture was analyzed by high performance liquid chromatography (HPLC) to determine the extent of reaction between SI-20 and M-41.

[2] = Extent of reaction between SI-20 and M-41 in mixed dispersions by HPLC: loss of SI-20; conditions: mixed with equal weight of M-41 dispersion, 40° C., 26 hours, listed substance is image stabilizer in M-41 dispersion
Protocol: as §1, §2
A dispersion of the magenta coupler M-41 was prepared in the following manner. 14.73 grams of tri(2-ethylhexyl) phosphate was heated as coupler solvent to a temperature of 120° C. and combined with 11.35 grams of image stabilizer STG-A1 and 3.4 grams of ST-1. This was then combined with 12.75 grams of coupler M-41 to constitute the oil phase. […]
as §3, with “M-41.” for “M-41. The results are as follows:”

In the case of CCCCOc1ccc(C(C)(C)CC(C)(C)C)cc1N(CCCC)CCCC [ST-2], the “% loss M-41” value [1] was 38.1% and the “% loss SI-20” value [2] was 11.1%.
With CCCCCCCCc1cc2c(cc1O)C(C(C)C)CC(C)(C)O2 (stereo not drawn) [ST-4] the “% loss M-41” value [1] was 59.0%.
For CCCCC(CC)COc1ccc(N2CCS(=O)(=O)CC2)cc1 (stereo not drawn) [STG-A1], the “% loss M-41” value [1] was 89.5% and the “% loss SI-20” value [2] was 31.4%.
For CCCOc1cc2c(cc1OCCC)C1(CC2(C)C)CC(C)(C)c2cc(OCCC)c(OCCC)cc21 [ST-5], the “% loss M-41” value [1] was 34.0%.
